Results: paper doi:10.1101/2025.10.09.681383
These are yes or no findings as the source states them, for the method shown. Binding seen in cells or lysates may run through a third protein. Some results given as binding are weak or reduced against the parent protein; the word gives no strength.

The chains behind the UniProt entries cited, without tags or fusion partners. Residues count along the entry.
UniProt P70302, residues 23-685: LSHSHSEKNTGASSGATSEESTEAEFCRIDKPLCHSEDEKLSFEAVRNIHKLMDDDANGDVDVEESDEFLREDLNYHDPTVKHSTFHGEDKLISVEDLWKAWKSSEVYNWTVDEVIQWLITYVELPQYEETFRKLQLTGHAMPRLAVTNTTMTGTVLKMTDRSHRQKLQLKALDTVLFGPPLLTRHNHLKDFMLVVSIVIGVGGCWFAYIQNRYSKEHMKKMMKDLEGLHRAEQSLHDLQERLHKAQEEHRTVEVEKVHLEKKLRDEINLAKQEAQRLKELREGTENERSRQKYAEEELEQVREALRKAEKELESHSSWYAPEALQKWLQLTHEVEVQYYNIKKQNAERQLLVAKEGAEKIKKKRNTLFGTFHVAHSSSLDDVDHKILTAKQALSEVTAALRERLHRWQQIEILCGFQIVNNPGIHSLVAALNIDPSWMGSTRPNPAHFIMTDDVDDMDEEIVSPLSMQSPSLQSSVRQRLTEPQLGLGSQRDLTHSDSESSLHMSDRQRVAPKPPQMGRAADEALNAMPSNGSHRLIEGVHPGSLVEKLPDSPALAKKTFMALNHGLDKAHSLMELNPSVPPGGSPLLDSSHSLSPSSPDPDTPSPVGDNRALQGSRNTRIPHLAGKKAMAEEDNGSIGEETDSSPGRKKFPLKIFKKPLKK

What was measured:
[1] = target: T1, ΔF233 DHHC21 (depilated mutant) (mouse (endogenous in spleen)) (UniProt Q9D270); assay: co-IP; spleen lysates (1 mg; 1% dodecyl-ß-D-maltoside in DPBS with protease inhibitors) of WT and depilated mice, anti-DHHC21 antibody overnight at 4 °C, protein A agarose, Western blot for STIM1
T1 sequence: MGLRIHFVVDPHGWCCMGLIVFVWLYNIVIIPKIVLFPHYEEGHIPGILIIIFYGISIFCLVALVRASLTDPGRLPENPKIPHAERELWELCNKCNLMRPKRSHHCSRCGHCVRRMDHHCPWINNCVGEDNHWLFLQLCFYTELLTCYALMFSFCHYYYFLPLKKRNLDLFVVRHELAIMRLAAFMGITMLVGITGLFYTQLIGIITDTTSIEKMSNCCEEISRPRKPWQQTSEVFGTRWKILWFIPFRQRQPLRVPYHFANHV

[2] = target: T2, DHHC21 (wild type) (mouse (endogenous in spleen)) (UniProt Q9D270); assay: as above
T2 sequence: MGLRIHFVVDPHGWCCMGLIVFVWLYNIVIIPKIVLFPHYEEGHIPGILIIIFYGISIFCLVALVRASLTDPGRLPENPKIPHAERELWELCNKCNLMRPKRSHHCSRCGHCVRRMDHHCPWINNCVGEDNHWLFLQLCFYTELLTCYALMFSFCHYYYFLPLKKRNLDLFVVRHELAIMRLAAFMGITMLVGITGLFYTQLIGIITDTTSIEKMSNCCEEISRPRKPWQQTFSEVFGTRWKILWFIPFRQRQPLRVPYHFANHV

“Stromal Interaction Molecule 1 (STIM1) (from UniProt P70302 23-685)” was tested, and the binding [1] was “binds” and the binding [2] was “binds”.
